± gives the standard deviation of the averaged measurements. The list shows a part of the results, in another mix than the full data.
Compound: Nc1ncnc2c1ncn2[C@@H]1O[C@H](COP(=O)(O)OP(=O)(O)NP(=O)(O)O)[C@@H](O)[C@H]1O [adenylyl imidodiphosphate]
Assay: NP40-soluble protein abundance relative to vehicle (solubility fold change) (ratio); higher = more soluble protein in presence of AMP-PNP
Procedure, shortened: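 Crude Jurkat lysate, prepared by Dounce homogenisation, was exposed to eight concentrations from 0.1 to 10 mM for 10 min at room temperature and then 3 min at 37 °C. Solubilisation used 0.8% NP40 with benzonase for 60 min at 4 °C, followed by ultracentrifugation and TMT labelling of the supernatant for LC-MS/MS. After vsn normalisation of intensities, each value is the fold change against the detergent-processed vehicle within each replicate, across three independent experiments.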

Sequences of proteins named here, by UniProt entry; tags and fusion partners are left off. A change or cut given only in a name is not applied to a line headed by its entry.
UniProt Q9Y3A5: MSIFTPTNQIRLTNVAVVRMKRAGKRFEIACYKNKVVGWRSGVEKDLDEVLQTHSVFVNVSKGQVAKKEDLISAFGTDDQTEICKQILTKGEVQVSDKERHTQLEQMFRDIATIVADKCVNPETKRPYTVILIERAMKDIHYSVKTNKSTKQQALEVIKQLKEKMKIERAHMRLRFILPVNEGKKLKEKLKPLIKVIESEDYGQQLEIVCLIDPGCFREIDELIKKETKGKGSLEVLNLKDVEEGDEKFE
UniProt P81877: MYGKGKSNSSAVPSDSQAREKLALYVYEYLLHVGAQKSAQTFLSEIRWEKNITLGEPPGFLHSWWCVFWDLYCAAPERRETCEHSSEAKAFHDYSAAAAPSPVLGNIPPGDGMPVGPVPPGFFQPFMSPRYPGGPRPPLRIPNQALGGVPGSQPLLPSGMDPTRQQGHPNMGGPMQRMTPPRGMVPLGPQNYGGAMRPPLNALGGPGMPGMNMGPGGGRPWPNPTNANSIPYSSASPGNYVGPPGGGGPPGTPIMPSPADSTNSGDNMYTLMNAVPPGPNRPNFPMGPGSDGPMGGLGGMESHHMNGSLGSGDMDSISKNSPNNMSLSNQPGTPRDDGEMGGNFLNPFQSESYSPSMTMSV
UniProt Q8N5P1: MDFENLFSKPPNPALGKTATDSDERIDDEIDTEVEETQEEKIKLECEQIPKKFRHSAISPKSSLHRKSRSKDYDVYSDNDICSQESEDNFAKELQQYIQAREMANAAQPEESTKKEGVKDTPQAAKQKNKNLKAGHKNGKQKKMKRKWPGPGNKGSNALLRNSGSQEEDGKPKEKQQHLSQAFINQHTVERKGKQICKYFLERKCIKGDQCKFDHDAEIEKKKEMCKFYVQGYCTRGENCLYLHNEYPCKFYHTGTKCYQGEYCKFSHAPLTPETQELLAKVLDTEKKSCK
UniProt Q5TBB1: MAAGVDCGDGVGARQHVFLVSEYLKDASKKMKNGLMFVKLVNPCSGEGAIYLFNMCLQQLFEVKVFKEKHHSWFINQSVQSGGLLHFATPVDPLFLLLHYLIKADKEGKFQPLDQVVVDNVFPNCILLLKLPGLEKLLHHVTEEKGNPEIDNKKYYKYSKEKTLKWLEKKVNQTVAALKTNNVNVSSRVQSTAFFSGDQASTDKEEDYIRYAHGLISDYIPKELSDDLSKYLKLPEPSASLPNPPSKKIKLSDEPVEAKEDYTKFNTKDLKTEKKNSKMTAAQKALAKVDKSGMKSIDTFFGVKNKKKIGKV
UniProt Q6NVY1: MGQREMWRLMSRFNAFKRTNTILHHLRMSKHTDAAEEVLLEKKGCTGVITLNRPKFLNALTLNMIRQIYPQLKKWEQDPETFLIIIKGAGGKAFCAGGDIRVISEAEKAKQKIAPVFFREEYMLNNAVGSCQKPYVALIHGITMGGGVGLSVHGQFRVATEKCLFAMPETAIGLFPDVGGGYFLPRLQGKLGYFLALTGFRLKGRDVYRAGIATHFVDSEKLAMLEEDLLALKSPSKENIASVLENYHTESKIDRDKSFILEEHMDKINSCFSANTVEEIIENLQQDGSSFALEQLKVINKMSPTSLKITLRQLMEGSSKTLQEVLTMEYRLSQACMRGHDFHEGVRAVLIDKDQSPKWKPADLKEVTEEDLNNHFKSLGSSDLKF
UniProt Q7Z2E3: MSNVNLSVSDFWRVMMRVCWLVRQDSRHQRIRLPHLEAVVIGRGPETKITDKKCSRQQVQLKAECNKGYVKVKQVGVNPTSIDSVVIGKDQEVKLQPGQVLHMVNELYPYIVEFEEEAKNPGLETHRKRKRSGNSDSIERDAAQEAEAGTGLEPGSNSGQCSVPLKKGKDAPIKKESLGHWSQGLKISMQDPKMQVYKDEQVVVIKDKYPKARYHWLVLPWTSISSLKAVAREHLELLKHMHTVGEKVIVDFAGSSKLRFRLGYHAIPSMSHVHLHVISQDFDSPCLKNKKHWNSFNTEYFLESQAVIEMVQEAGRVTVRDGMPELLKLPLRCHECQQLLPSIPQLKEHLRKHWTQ
UniProt Q15651: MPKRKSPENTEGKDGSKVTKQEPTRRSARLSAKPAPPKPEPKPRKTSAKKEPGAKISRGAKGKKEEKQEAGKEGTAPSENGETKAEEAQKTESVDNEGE
UniProt Q9H2P9: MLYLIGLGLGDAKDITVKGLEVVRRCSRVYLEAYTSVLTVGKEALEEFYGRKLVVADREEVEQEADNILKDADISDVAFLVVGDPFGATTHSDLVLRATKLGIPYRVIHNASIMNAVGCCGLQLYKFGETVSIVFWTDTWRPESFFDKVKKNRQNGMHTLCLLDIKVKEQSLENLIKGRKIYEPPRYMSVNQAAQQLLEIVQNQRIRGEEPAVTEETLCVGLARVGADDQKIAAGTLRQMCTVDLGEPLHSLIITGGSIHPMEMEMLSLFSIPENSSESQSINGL
UniProt O75818: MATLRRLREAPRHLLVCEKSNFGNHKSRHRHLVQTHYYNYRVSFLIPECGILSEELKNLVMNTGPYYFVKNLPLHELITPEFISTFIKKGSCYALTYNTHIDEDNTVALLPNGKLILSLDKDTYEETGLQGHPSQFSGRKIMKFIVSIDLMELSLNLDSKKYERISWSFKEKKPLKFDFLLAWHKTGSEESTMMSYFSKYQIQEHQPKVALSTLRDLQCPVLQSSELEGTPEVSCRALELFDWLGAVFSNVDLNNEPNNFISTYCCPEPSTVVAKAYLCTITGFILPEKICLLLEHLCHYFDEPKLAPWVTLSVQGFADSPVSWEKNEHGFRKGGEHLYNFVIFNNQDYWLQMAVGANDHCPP
UniProt Q5T8I9: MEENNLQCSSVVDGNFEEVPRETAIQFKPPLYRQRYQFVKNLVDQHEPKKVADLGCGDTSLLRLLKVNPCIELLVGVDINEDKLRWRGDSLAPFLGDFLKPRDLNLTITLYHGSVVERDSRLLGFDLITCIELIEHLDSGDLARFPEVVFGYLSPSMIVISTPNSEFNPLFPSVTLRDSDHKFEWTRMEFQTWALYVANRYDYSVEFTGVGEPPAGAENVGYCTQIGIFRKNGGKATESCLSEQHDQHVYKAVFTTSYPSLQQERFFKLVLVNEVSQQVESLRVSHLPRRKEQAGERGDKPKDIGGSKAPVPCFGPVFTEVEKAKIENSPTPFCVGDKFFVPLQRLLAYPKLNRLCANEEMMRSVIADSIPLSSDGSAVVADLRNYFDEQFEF
UniProt A0MZ66, whole entry: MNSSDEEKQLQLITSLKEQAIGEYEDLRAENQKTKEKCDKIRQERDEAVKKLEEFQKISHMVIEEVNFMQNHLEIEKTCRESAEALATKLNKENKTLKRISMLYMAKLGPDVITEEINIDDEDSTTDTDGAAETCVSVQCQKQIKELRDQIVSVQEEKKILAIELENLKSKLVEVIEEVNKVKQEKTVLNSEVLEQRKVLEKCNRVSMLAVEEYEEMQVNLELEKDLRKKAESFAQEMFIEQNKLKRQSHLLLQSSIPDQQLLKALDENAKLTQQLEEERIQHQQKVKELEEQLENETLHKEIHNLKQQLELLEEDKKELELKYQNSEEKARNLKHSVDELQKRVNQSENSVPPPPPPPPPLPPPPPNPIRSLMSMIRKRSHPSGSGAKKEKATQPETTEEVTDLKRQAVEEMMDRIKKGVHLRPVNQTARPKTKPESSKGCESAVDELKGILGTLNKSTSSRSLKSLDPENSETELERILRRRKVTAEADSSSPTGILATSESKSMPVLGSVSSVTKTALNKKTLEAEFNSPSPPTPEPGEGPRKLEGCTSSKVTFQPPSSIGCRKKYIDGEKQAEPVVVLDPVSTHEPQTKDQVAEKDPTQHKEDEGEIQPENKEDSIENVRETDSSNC
UniProt Q5VT25: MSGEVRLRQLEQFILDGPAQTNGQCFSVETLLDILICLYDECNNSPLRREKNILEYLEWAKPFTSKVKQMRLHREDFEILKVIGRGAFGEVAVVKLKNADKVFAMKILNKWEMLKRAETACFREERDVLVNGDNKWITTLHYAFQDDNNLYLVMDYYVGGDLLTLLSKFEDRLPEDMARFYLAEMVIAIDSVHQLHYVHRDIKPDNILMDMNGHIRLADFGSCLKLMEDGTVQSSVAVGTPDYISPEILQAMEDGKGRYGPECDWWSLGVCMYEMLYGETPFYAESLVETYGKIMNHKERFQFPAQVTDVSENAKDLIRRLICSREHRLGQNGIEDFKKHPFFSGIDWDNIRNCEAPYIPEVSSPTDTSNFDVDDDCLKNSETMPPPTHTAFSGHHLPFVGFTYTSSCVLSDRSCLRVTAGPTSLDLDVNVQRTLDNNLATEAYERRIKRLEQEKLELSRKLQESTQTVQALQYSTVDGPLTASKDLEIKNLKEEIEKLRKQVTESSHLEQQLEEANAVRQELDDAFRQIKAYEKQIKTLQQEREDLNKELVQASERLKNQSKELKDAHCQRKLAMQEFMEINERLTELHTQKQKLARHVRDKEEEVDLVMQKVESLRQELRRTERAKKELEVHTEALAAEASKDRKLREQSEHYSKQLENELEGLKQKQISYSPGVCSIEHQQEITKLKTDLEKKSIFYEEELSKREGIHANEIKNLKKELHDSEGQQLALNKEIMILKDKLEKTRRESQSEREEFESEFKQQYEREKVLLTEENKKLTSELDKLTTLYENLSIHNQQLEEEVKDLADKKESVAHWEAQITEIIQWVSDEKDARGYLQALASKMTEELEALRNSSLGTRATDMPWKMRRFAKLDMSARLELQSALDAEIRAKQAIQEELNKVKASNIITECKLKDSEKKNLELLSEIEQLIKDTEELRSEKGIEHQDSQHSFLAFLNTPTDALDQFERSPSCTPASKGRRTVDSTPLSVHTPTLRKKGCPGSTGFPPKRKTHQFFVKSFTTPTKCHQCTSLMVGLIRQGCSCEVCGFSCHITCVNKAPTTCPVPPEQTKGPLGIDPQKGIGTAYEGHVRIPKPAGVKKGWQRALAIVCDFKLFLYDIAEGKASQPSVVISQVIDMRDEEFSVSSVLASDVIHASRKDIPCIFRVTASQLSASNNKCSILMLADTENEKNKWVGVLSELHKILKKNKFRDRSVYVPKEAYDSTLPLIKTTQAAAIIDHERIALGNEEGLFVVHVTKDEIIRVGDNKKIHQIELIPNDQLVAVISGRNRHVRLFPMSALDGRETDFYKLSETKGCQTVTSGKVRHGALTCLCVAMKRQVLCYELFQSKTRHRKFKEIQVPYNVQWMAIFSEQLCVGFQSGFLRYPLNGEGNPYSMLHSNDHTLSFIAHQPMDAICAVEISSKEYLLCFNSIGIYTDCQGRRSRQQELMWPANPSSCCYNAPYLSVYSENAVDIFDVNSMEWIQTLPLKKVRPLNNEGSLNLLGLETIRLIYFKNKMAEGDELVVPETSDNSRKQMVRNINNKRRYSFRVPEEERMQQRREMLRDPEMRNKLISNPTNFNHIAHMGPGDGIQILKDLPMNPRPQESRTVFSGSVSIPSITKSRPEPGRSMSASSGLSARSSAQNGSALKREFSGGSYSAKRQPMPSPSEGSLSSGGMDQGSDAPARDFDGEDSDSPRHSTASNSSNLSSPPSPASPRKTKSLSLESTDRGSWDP
UniProt Q9UPT5: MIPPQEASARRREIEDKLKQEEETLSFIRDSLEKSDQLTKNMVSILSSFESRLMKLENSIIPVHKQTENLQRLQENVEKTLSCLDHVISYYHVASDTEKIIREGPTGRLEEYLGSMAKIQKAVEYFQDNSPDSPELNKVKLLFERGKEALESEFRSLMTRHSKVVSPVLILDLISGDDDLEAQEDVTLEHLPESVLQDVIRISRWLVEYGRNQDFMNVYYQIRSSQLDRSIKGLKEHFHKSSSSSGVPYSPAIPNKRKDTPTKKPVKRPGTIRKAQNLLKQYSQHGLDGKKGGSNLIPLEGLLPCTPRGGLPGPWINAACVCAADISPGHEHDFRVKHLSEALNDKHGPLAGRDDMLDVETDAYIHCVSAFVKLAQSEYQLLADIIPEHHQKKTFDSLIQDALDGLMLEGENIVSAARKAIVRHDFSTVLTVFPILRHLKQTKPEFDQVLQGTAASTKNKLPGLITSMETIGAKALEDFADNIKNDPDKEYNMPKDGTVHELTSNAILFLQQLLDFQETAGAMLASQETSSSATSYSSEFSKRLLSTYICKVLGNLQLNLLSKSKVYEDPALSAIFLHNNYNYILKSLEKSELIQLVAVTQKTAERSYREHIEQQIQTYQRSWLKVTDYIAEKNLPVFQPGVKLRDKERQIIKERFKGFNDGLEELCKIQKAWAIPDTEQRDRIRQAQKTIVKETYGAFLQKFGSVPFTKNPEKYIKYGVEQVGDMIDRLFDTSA

Target	NP40-soluble protein abundance (concentration: 1mM)	NP40-soluble protein abundance (concentration: 2mM)	NP40-soluble protein abundance (concentration: 4mM)	NP40-soluble protein abundance (concentration: 6mM)	NP40-soluble protein abundance (concentration: 8mM)	NP40-soluble protein abundance (concentration: 10mM)
A0A087X020|Q9Y3A5 (UniProt Q9Y3A5)	1 ± 0.03	0.964 ± 0.043	1.01 ± 0.028	0.983 ± 0.012	1.03 ± 0.018	1.02 ± 0.026
A0A087X159|P81877 and related entries (UniProt P81877)	0.994 ± 0.025	0.978 ± 0.029	0.953 ± 0.021	0.976 ± 0.013	0.991 ± 0.017	0.9793 ± 0.003
A0A0C4DGZ1|Q8N5P1 (UniProt Q8N5P1)	1 ± 0.034	1.11 ± 0.1	1.07 ± 0.075	1.14 ± 0.049	1.18 ± 0.025	1.25 ± 0.091
A0A087WWH3|Q9NZM4 and related entries (UniProt Q9NZM4)	1.02 ± 0.016	1.04 ± 0.021	1.03 ± 0.023	1.009 ± 0.0024	1.009 ± 0.0079	1.05 ± 0.028
A0A087WXR7|Q5TBB1 (UniProt Q5TBB1)	1.02 ± 0.013	1.02 ± 0.075	0.986 ± 0.019	1.07 ± 0.067	1.06 ± 0.033	1.06 ± 0.025
A0A087WXI1|Q6NVY1 (UniProt Q6NVY1)	1.01 ± 0.016	0.967 ± 0.037	0.971 ± 0.019	0.9685 ± 0.0074	0.991 ± 0.019	0.955 ± 0.02
A0A0A0MRW7|Q7Z2E3 and related entries (UniProt Q7Z2E3)	1.01 ± 0.013	1.03 ± 0.022	1.077 ± 0.0052	1.05 ± 0.0071	1.08 ± 0.042	1.12 ± 0.033
A0A087WZE9 (UniProt Q15651)	1.03 ± 0.0075	1.08 ± 0.022	1.09 ± 0.043	1.144 ± 0.01	1.12 ± 0.04	1.23 ± 0.026
A0A087WXP7|Q9H2P9 and related entries (UniProt Q9H2P9)	0.95 ± 0.027	0.982 ± 0.034	0.969 ± 0.022	0.936 ± 0.021	0.947 ± 0.017	0.961 ± 0.048
A0A087X1N3|O75818 and related entries (UniProt O75818)	1.01 ± 0.031	0.943 ± 0.089	0.9846 ± 0.0025	0.967 ± 0.027	0.986 ± 0.027	0.941 ± 0.077
A0A0A0MRN1|Q5T8I9 (UniProt Q5T8I9)	1.03 ± 0.03	1.03 ± 0.015	1 ± 0.026	0.981 ± 0.045	0.983 ± 0.021	0.9888 ± 0.0068
UniProt A0MZ66 and related entries	1.03 ± 0.033	1.09 ± 0.065	1.03 ± 0.046	0.987 ± 0.01	0.968 ± 0.033	0.979 ± 0.05
A0A0A0MRJ0|Q5VT25 and related entries (UniProt Q5VT25)	1.04 ± 0.029	1.1 ± 0.014	1.109 ± 0.0074	1.1 ± 0.073	1.09 ± 0.051	1.14 ± 0.044
A0A0A0MSB8|Q9UPT5 and related entries (UniProt Q9UPT5)	0.982 ± 0.019	1 ± 0.048	0.9615 ± 0.0086	0.9529 ± 0.0078	0.948 ± 0.012	0.9521 ± 0.0061

Record cards (already shown). Order of values: NP40-soluble protein abundance (concentration: 1mM)	NP40-soluble protein abundance (concentration: 2mM)	NP40-soluble protein abundance (concentration: 4mM)	NP40-soluble protein abundance (concentration: 6mM)	NP40-soluble protein abundance (concentration: 8mM)	NP40-soluble protein abundance (concentration: 10mM)
A0A087WXI1|Q6NVY1 (UniProt Q6NVY1) as listed: 1.01 ± 0.016	0.967 ± 0.037	0.971 ± 0.019	0.9685 ± 0.0074	0.991 ± 0.019	0.955 ± 0.02
A0A0A0MRW7|Q7Z2E3 and related entries (UniProt Q7Z2E3) as listed: 1.01 ± 0.013	1.03 ± 0.022	1.077 ± 0.0052	1.05 ± 0.0071	1.08 ± 0.042	1.12 ± 0.033

— the supplement of paper PMC6411743
